No constants are given. Whether binding was seen depends on the method and setting. In cells and extracts the contact can be indirect. A yes stands for co-enrichment or nearness to the bait. Other partners may have been found. Where a sequence is shown, tags or fusion partners need not be part of it.
T1: flag-tagged Mts4 (Rpn1) (S. pombe) (UniProt P87048)
T1 sequence: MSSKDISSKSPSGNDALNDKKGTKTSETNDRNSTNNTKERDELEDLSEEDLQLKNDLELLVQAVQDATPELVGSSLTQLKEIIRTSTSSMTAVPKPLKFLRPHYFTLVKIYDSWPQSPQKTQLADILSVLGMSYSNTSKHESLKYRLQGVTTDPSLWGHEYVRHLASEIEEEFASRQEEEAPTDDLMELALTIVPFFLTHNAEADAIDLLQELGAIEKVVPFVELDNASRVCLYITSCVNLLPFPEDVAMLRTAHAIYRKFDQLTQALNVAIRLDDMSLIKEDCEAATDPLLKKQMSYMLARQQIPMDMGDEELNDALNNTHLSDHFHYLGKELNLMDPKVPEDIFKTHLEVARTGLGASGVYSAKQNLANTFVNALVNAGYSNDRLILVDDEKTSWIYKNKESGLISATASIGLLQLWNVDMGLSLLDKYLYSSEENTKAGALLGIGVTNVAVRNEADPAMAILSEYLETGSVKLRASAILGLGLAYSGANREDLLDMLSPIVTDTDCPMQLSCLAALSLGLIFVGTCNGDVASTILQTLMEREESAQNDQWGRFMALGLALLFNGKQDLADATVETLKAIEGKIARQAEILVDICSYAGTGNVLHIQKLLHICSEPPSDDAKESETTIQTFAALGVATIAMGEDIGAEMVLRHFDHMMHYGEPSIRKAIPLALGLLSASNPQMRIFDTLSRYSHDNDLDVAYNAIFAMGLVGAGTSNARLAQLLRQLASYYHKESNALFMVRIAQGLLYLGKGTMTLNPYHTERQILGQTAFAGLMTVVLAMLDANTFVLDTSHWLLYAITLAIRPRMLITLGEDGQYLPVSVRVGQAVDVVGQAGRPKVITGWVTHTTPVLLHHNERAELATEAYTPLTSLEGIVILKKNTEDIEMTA

B1: Rpn3 (protein, UniProt O42897 1-497)
chain: MIDDQRDMQVDSVNQEENVDSGETKQNTVTEVPRTVLQDVEANIAALMQATKQRDPRLVYRSLRTTSNICHRLNADVLGQLIKKYYSFDNSLKNELLELIDMPQNGDDSSTSITNGNGNTIFPEVDMYLQLLLSMTLYYNEKYEVGAEYIKKVIARLQSYDRRTLDQIAAKLYFYYILFFEKCNRSVECRNTLLSVHRTASLRHDSETQAMVLTLLLRNYIQFNLYDQADRLVSKTSFLTNASNNLAIRYQYYLGRIRAIQLDYTTAHEHLVSAIRKAPNTVYAVQFLEAVYKLHIVVQLLMGEIPERRIFRQKSLEKTLVPYLRISQAVRIGDLCAFTDALSKYEAEFRFDGLYTLICRLRHTVIKTGLRMISLSYSRISLRDVCIKLGLDSEESAEYIVAKGIRDGVIDASIDHSNAFMASNEAMDIYSTEQPQQAFHERIQFCLALHNDSIKSMRYPMDAHKSELEGVEEARRRMDKEMAEADLDDDEPDLGEF
B2: Rpn7 (protein, UniProt Q10335 1-397)
chain: MTEKARTVSDLTISQAIFELSSPFLENKSQKALDTLFSAIRDHDLAPLYKYLSENPKTSASIDFDSNFLNSMIKKNEEKLAEFDKAIEDAQELNGEHEILEAMKNKADYYTNICDRERGVQLCDETFERATLTGMKIDVLFSKIRLAYVYADMRVVGQLLEKLKPLIEKGGDWERKNRLKAYQGIYLMSIRNFSGAADLLLDCMSTFSSTELLPYYDVVRYAVISGAISLDRVDVKTKIVDSPEVLAVLPQNESMSSLEACINSLYLCDYSGFFRTLADVEVNHLKCDQFLVAHYRYYVREMRRRAYAQLLESYRALSIDSMAASFGVSVDYIDRDLASFIPDNKLNCVIDRVNGVVFTNRPDEKNRQYQEVVKQGDVLLNKLQKYQATVMRGAFKV

Target: T1, flag-tagged Mts4 (Rpn1) (S. pombe)
Assay: affinity purification with mass spectrometry; 26S proteasomes, flag-tagged on Mts4 (Rpn1), purified from wild-type, rpn10Δ, rpn10ΔUIM and dss1Δ cells; label-free quantitative mass spectroscopy

Row | Binder | binding
1 | B1 | binds
2 | B2 | binds

— PMC4232310
